This assay relates to P388 leukemia ip, CD2F1 mice, survival T/C. In words: NCI In Vivo Anticancer Drug Screen. Data for tumor model P388 Leukemia (intraperitoneal) in CD2F1 (CDF1) mice. To be noted: T/C endpoint: median survival time, higher T/C = longer survival.
Setting [1] is: dose: 100.0 mg/kg/injection, schedule: Q01DX009 (ip), vehicle: saline with Tween-80.
[2] abbreviates: dose: 200.0 mg/kg/injection, schedule: Q01DX009 (ip), vehicle: saline with Tween-80.
[3] abbreviates: dose: 200.0 mg/kg/injection, schedule: Q04DX003 (ip), vehicle: saline.
The mark [4] stands for this setting: dose: 400.0 mg/kg/injection, schedule: Q04DX003 (ip), vehicle: saline.

The list does not hold the whole screen: it is rich in T/C values a quarter to a half above the control, in often repeated tests (any T/C) and in doses without a T/C. Further doses and runs are listed elsewhere. T/C: endpoint of the treated group in % of that of the vehicle group. Some entries give survivors of the animals treated and no T/C: the source files T/C as zero there, which appears to mark a toxic dose or a test without result, not a measured value. Some doses without a T/C left all or most animals alive at the check, yet need not have been tolerated: survival well below the control is almost never listed, so the zero probably covers shortened survival too. Survivors were counted at the toxicity check, usually on the fifth day, unless a day is given; later deaths do not show. Schedule codes are those of the source, read here as Q, the interval in days (D) or hours (H), X, the number of doses. Some molecules as drawn cover several salts, stereoisomers or complexes of the source; a dose is that of the sample tested. Where survival is the endpoint, this PubChem deposit counts one and a half times the control or more as active, and values a quarter to a half above the control carry no call in these data; other NCI protocols may use other cut-offs. Some T/C values are followed by the survivors on the day toxicity was checked, most often the fifth; without a count, all were alive then.

Turning to `Cc1[nH]ccc2c(C)c3nc4ccc(O)cc4c3cc12`, the T/C was 125 % of control (dose: 5.0 mg/kg/injection, schedule: Q04DX002 (ip), vehicle: water); 126 % of control (dose: 6.25 mg/kg/injection, schedule: Q04DX002 (ip), vehicle: water); 130 % of control (dose: 10.0 mg/kg/injection, schedule: Q04DX002 (ip), vehicle: water); 130 % of control [5 of 6 alive] (dose: 12.5 mg/kg/injection, schedule: Q04DX002 (ip), vehicle: water); 136 % of control [5 of 6 alive] (dose: 20.0 mg/kg/injection, schedule: Q04DX002 (ip), vehicle: water); 141 % of control (dose: 25.0 mg/kg/injection, schedule: Q04DX002 (ip), vehicle: water). The T/C (dose: 50.0 mg/kg/injection, schedule: Q04DX002 (ip), vehicle: water) is 141 % of control [5 of 6 alive]. Besides, the survivor count reads like this: (dose: 80.0 mg/kg/injection, schedule: Q04DX002 (ip), vehicle: water) 6 of 6; (dose: 100.0 mg/kg/injection, schedule: Q04DX002 (ip), vehicle: water) 3 of 6; (dose: 200.0 mg/kg/injection, schedule: Q04DX002 (ip), vehicle: water) 0 of 6.
Turning to `N#C[C@H]1O[C@H]1c1ccc[n+]([O-])c1`, the survivor count runs as follows: (dose: 100.0 mg/kg/injection, schedule: Q01DX005 (ip), vehicle: saline) 0 of 6; (dose: 200.0 mg/kg/injection, schedule: Q01DX005 (ip), vehicle: saline) 0 of 6.
Consider `Cc1ccc(C(=O)NC2c3ccccc3Oc3ccccc32)cc1`, for which, under “dose: 200.0 mg/kg/injection, schedule: Q01DX005 (ip), vehicle: saline with Tween-80”, the survivor count is listed as 5 of 5.
As to `O=C(O)CCCSC1=CC(=O)c2ccccc2C1=O`, the survivor count was 0 of 6 (dose: 25.0 mg/kg/injection, schedule: Q04DX003 (ip), vehicle: DMSO); 0 of 6 (dose: 50.0 mg/kg/injection, schedule: Q04DX003 (ip), vehicle: DMSO); 0 of 6 (dose: 100.0 mg/kg/injection, schedule: Q04DX003 (ip), vehicle: DMSO); 0 of 6 (dose: 200.0 mg/kg/injection, schedule: Q04DX003 (ip), vehicle: DMSO).
In the case of `Cc1cc(N)c(C)c2ccncc12`, the survivor count is given as 6 of 6 (dose: 2.5 mg/kg/injection, schedule: Q01DX009 (ip), vehicle: saline with Tween-80); 3 of 6 (dose: 5.0 mg/kg/injection, schedule: Q04DX003 (ip), vehicle: saline with Tween-80); 0 of 6 (dose: 10.0 mg/kg/injection, schedule: Q04DX003 (ip), vehicle: saline with Tween-80).
`COc1cccc(C(=O)CC[N+](C)(C)C)c1`: the survivor count (dose: 50.0 mg/kg/injection, schedule: Q01DX009 (ip), vehicle: saline with Tween-80) is 2 of 6; the survivor count under setting [1] was 0 of 6; the survivor count under setting [2] was 0 of 6.
On to `COc1cccc2c1C(=O)c1c(O)c3c(c(O)c1C2=O)CC(O)(C(C)=O)CC3OC1CC(NC2CCOCC2)C(O)C(C)O1` (stereo not given), for which the T/C by setting is: (dose: 25.0 mg/kg/injection, schedule: Q04DX003 (ip), vehicle: water) 126 % of control; (dose: 50.0 mg/kg/injection, schedule: Q04DX003 (ip), vehicle: water) 129 % of control; (dose: 100.0 mg/kg/injection, schedule: Q04DX003 (ip), vehicle: water) 136 % of control.
As to `CCCCCCCCCCCCCC[N+]1(CC)CCCC1`, the survivor count is on record as 1 of 6 (dose: 25.0 mg/kg/injection, schedule: Q04DX002 (ip), vehicle: saline); 0 of 6 (dose: 100.0 mg/kg/injection, schedule: Q04DX002 (ip), vehicle: saline); 0 of 6 (dose: 200.0 mg/kg/injection, schedule: Q04DX002 (ip), vehicle: saline); 0 of 6 (dose: 400.0 mg/kg/injection, schedule: Q04DX002 (ip), vehicle: saline).
With `CCOC(=O)Nc1cc2c(c(N)n1)N=C(c1ccc(Cl)c(Cl)c1)CN2`, the T/C reads like this: (dose: 7.5 mg/kg/injection, schedule: Q01DX005 (ip), vehicle: saline with Tween-80) 131 % of control; (dose: 10.0 mg/kg/injection, schedule: Q01DX005 (ip), vehicle: saline with Tween-80) 140 % of control. The survivor count reads like this: (dose: 15.0 mg/kg/injection, schedule: Q01DX005 (ip), vehicle: saline with Tween-80) 5 of 5; (dose: 20.0 mg/kg/injection, schedule: Q01DX005 (ip), vehicle: saline with Tween-80) 5 of 5.
`O=[N+]([O-])CC(OCCCCCCO)C(Cl)(Cl)Cl` (stereo not given): the survivor count under setting [2] was 3 of 6.
`c1cc2cc(-c3ccc(-c4cc5ccc(C6=NCCN6)cc5[nH]4)cc3)[nH]c2cc1C1=NCCN1`: the T/C is, setting by setting: (dose: 100.0 mg/kg/injection, schedule: Q04DX003 (ip), vehicle: saline) 138 % of control; under setting [3], 138 % of control; under setting [4], 130 % of control.
Take `NC(N)=NC(N)=Nc1ccc(Cl)c(Cl)c1`: the survivor count runs as follows: under setting [1], 3 of 6; under setting [3], 4 of 6; under setting [4], 4 of 6.
For `c1ccc([P+](NCCN[P+](c2ccccc2)(c2ccccc2)c2ccccc2)(c2ccccc2)c2ccccc2)cc1`, the survivor count is 5 of 6 (dose: 25.0 mg/kg/injection, schedule: Q01DX009 (ip), vehicle: saline); 1 of 6 (dose: 50.0 mg/kg/injection, schedule: Q01DX009 (ip), vehicle: saline); 0 of 6 (dose: 100.0 mg/kg/injection, schedule: Q01DX009 (ip), vehicle: saline); 0 of 6 (dose: 200.0 mg/kg/injection, schedule: Q01DX009 (ip), vehicle: saline).

These data come from PubChem BioAssay AID330 (DTP/NCI, 2004).
